# According to PubChem BioAssay AID1347423 (Functional Genomics Laboratory (NCATS/FGL), 2020):
# The whole screen tested about 52,000 sequences, of which about 210 (0.4%) were called active.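 How the source made its calls: active means gene whose silencing raises cell survival under the drug, median off-target-corrected z-score across its silencing RNAs 2 or more; inactive means the rest.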 This is one part of the list.
# Assay: Resistance to Poly (ADP-Ribose) Polymerase inhibitor: Gene Identification via Genome-wide siRNA Screen
# Details: mouse BRCA2 R2336H ES cells, olaparib, CellTiter-Glo viability; stronger effect = higher value
# Summary of the method: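 Mouse BRCA2 R2336H ES cells were reverse-transfected with siRNA (20 nM final), treated at 48 h with 500 nM olaparib, and read by CellTiter-Glo after 72 h. Scores: MAD-based z per siRNA, median per gene, seed off-target correction.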
row,Sequence,z-score
1,GGUUCUGUUCCCAUGAGAATT against Ntng2,inactive: -0.999
2,CCGGUAUGGCAAAAGCCAUTT against Pomt1,inactive: -0.591
3,GGUUAAACAGCUCCAUUUUTT against Padi2,inactive: 1.03
4,GGAAGAGAACAACAUCUUUTT against 2810405F18Rik,inactive: -0.0432
5,GGGAUGAAAUCAAUUGUACTT against C820005L12Rik,inactive: -0.423
6,GCAAUGUUCGCUUGAAACUTT against 9430099J10Rik,inactive: -0.126
7,GGUAGUGAUUACGAACCAATT against Hey1,inactive: -0.536
8,GCAUAAACAGCGACAAAUGTT against Mrpl36,inactive: 0.0889
9,GGUGUUAUGCAAAAUUCAGTT against Slc7a6,inactive: 2
10,GGCAAUACAGGCAUCUUCATT against V1rc4,inactive: -0.0103
11,GGUACAAUUCUUCUUUCGUTT against Olfr1420,inactive: -0.0511
12,CGCGAUUGCACUCUUAUUATT against 2610001J05Rik,inactive: 0.0985
13,GUACCUCUACUAUUCCUUUTT against 4833428E21Rik,inactive: 0.0656
14,GCUCCACACUACGUGUCAUTT against Olfr476,inactive: 0.352
15,GGGCAUCACUUGUAAUUAATT against Bcl10,inactive: -2.03
16,GGUUCGAAAUUUUCUAACCTT against Gpr50,inactive: -0.377
17,GCUAAUCUCUCAAAUGUUUTT against Kpna1,inactive: 1.35
18,CCCACCUUCCGACUUGAAUTT against Col12a1,inactive: -0.248
19,GGAUUCGUUCAGCUAAGGGTT against Olfr1023,inactive: 0.156
20,GCUACAGUCGUUGUUUGAATT against Serpinf1,inactive: 0.897
21,GGUCUUAGCUGUCCUCAAGTT against Olfr273,inactive: -0.377
22,GGAUGAGUGCAGCAAAAGUTT against 9230109N16,inactive: 1.64
23,CACUAGUUGCUGGUCUUACTT against AA415817,inactive: -1.47
24,GGACUUGUUCUUGUACAGCTT against 2610510B01Rik,inactive: 1.76
25,GGAGAAUUGCCUAUUUGAATT against D330022A01Rik,inactive: 0.882
26,CUAUGACACUUGGUUCCAUTT against LOC381680,inactive: -2.12

row,Sequence,z-score
1,GGUGAACUGUUCUUCCUCATT against Icam1,inactive: -3.34
2,CCUUGAAAUUCGUUAUCAUTT against Tmc7,inactive: 1.43
3,CCCGAGCCUCAAGAUUUACTT against 2310042L06Rik,inactive: 0.364
4,GCUAUUGUUGUUGCAUCUGTT against V1rd4,inactive: 0.0375
5,GGAAACACCUUUGAGGCUCTT against 2410012C07Rik,inactive: -0.17
6,GGAGCAUCCCUACGAUGCATT against Atp6v1f,inactive: -0.575
7,CCUGCUAUUUCUAUAUAACTT against Galnact2,inactive: 0.408
8,GGAAGGGCCACUUAAUGCUTT against Zzz3,inactive: 0.221
9,GCAACAUAUGGUAUACUGUTT against Mdm4,inactive: 1.52
10,GGAUGUUUGCUCUUGAGCGTT against 2610034N03Rik,inactive: 0.18
11,GGCAAAUAUGAACGUGCACTT against Ptcd2,inactive: 0.00701
12,GGUUUUUUAUUCCUGAUGGTT against Slc35f1,inactive: 0.627
13,GGCGAGUUCCAGAUUCUUCTT against Car3,inactive: 1.26
14,CGGGUGAAGAAACAAAAAUTT against Nap1l1,inactive: 0.596
15,GGAGAUGGUUAUGUGGGAUTT against Tgoln2,inactive: -1.23
16,GGAACUACGAAGUCUGUUCTT against Elavl1,inactive: 0.98
17,GGGAUUCCUAUUUCACAUCTT against BC023488,inactive: -0.437
18,CGACAUAUAAAAUUGUUCCTT against Cobl,inactive: -0.911
19,CCACAUCUUCACAAUGUCCTT against Cdk8,inactive: -1.02
20,GGACCAGAAGAGGAUGGUCTT against Ndn,inactive: 1.5
21,GCUUCAUGGAUGCAAUUGATT against Adhfe1,inactive: -0.205
22,GCCCAUUUUAGUAAACGAATT against Dspp,inactive: -0.0241
23,GGAACAUGUUCUGCAUUUATT against Rab40b,inactive: -2.23
24,GGAUUCCUGAUUUCUUCAUTT against Snip1,inactive: -0.071
25,GGCUCAGCUCCAGCAUAAUTT against 4833436C18Rik,inactive: -0.949
26,CCAACGACUAAGAGAAGAGTT against 2610019F03Rik,inactive: 0.225

row,Sequence,z-score
1,GGCCAAAGGAGUUCAUGAUTT against Gcm2,inactive: -0.789
2,CCAUAUGUCACUGCACUUATT against A930041G11Rik,inactive: 0.297
3,CCUGCUCUUCGUUAUCUUGTT against Olfr552,inactive: 0.567
4,GGACACAAGCCUAUUCCAATT against 1700051E09Rik,inactive: -0.442
5,GCACAACUCAGAAGUAAUUTT against Ghr,inactive: -0.192
6,CCCUCACUGCUCAAAUUCUTT against Ifna12,inactive: -0.159
7,GGACAGAUCCCAUUCAAAUTT against D15Bwg0669e,inactive: 1.32
8,GGAGGAUCACCCAUCAAAUTT against Oxct1,inactive: 0.6
9,GCAAGGUAUUCCAUGCUCATT against LOC545925,inactive: -0.828
10,GGAAAAAUGAACUUCAGUGTT against Cetn2,inactive: -0.422
11,GGAAGUUACAGAUGUGGCUTT against Nog,inactive: 0.475
12,GUGUGCCAAAACCGAGAGUTT against 1700127D06Rik,inactive: 0.713
13,GGACUAUCCUCACUCCCUUTT against Pigo,inactive: -1.92
14,GGAAGUGUGGUGAAACUGUTT against Clecsf8,inactive: -0.25
15,GGAUUUCAACGUGGCAGUUTT against 2310046G15Rik,inactive: 0.875
16,GGGAUCAUCUCUUUUGCUGTT against Olfr720,inactive: -0.484
17,GGUCAAGGAAUUAGUGAUUTT against 1700055O19Rik,inactive: 0.375
18,GGAAGAAAGAAAGAACAGATT against D13Bwg1146e,inactive: 1.48
19,GGGAAGGGUGAUGCAGAUCTT against Prkcq,inactive: -1.42
20,GGAAAUCAGAAUUCCAAAATT against Cntn6,inactive: 0.984
21,GCGACCAUGACAAACACAATT against Brd7,inactive: 0.48
22,GCCCAGUACGAAGAAAUCATT against Dkk4,inactive: 1.51
23,CAGCGAUCCAAGUACCUGGTT against Mbp,inactive: -1.94
24,GCAUGUUCGUGGAAGUACUTT against 1700083M11Rik,inactive: -0.892
25,GGCGCAAGCAAAGAAACAUTT against Pbx3,inactive: 0.582
26,CGGUCACAUCUCUACUGCATT against Tas2r138,inactive: -0.656

# No new results follow: entries from further up.
row,Sequence,z-score
1,GGUGAACUGUUCUUCCUCATT against Icam1,inactive: -3.34
2,CCUUGAAAUUCGUUAUCAUTT against Tmc7,inactive: 1.43
3,CCCGAGCCUCAAGAUUUACTT against 2310042L06Rik,inactive: 0.364
4,GCUAUUGUUGUUGCAUCUGTT against V1rd4,inactive: 0.0375
5,GGAAACACCUUUGAGGCUCTT against 2410012C07Rik,inactive: -0.17
6,GGAGCAUCCCUACGAUGCATT against Atp6v1f,inactive: -0.575
7,CCUGCUAUUUCUAUAUAACTT against Galnact2,inactive: 0.408
8,GGAAGGGCCACUUAAUGCUTT against Zzz3,inactive: 0.221
9,GCAACAUAUGGUAUACUGUTT against Mdm4,inactive: 1.52
10,GGAUGUUUGCUCUUGAGCGTT against 2610034N03Rik,inactive: 0.18
11,GGCAAAUAUGAACGUGCACTT against Ptcd2,inactive: 0.00701
12,GGUUUUUUAUUCCUGAUGGTT against Slc35f1,inactive: 0.627
13,GGCGAGUUCCAGAUUCUUCTT against Car3,inactive: 1.26
14,CGGGUGAAGAAACAAAAAUTT against Nap1l1,inactive: 0.596
15,GGAGAUGGUUAUGUGGGAUTT against Tgoln2,inactive: -1.23
16,GGAACUACGAAGUCUGUUCTT against Elavl1,inactive: 0.98
17,GGGAUUCCUAUUUCACAUCTT against BC023488,inactive: -0.437
18,CGACAUAUAAAAUUGUUCCTT against Cobl,inactive: -0.911
19,CCACAUCUUCACAAUGUCCTT against Cdk8,inactive: -1.02
20,GGACCAGAAGAGGAUGGUCTT against Ndn,inactive: 1.5
21,GCUUCAUGGAUGCAAUUGATT against Adhfe1,inactive: -0.205
22,GCCCAUUUUAGUAAACGAATT against Dspp,inactive: -0.0241
23,GGAACAUGUUCUGCAUUUATT against Rab40b,inactive: -2.23
24,GGAUUCCUGAUUUCUUCAUTT against Snip1,inactive: -0.071
25,GGCUCAGCUCCAGCAUAAUTT against 4833436C18Rik,inactive: -0.949
26,CCAACGACUAAGAGAAGAGTT against 2610019F03Rik,inactive: 0.225

# Next part

row,Sequence,z-score
1,GGGAUUGACAUUGGAUGGGTT against Gabarap,inactive: -0.0443
2,GCAUUCAUACAUGUAACAGTT against 4833422F06Rik,inactive: 0.619
3,GGACCCUGUUCUUUGCUUATT against Npn3,inactive: 0.646
4,GGAUCACUGCUUUUACCACTT against Adam19,inactive: -0.43
5,CCAGUAGGACUAGCAACACTT against Gast,inactive: 0.913
6,GGCUGGAAAGGAGGAUACATT against Fbxl19,inactive: 0.362
7,CCGCUGGUGUGAUCACAAUTT against Slc5a2,inactive: 0.684
8,GUGUUUUAGUGCGAGUCCUTT against Klrb1a,inactive: 0.926
9,GGGCAAAACAGAAAUUCAATT against Sypl,inactive: 2.11
10,CGACAGUCUAGCAUGUAACTT against Vmd2,inactive: -1.28
11,GGCAAUUGUCUCAUUCUGATT against Olfr631,inactive: -1.67
12,GGGUUGACCACUAUUUCUGTT against Olfr1338,inactive: -0.6
13,GGAGAUCAAUGAGAAGAUCTT against Akap3,inactive: 0.111
14,GGCAAUCCCACAUCCUCGATT against 1200009B18Rik,inactive: 0.184
15,GGCUUAAUUGUUUGUGUGATT against Slc18a2,inactive: 0.483
16,GGGAAAAGUAUCCUCUGUUTT against Olfr877,inactive: -1.81
17,GGAGAACAGACACAGGGUGTT against Dlg7,inactive: -2.13
18,GGACCUCAGAGAAGUGCAGTT against Ssbp4,inactive: -0.636
19,GGACAUCAACGACAACAAUTT against Pcdhgc3,inactive: 1.54
20,GGGUUUUUUUAGAGAGAUUTT against 1700017I11Rik,inactive: 0.102
21,GAGCCAUAUACCUCGUCCUTT against 2700087H15Rik,inactive: 0.598
22,CCCUGGAGUAAACUCAAAUTT against Onecut2,inactive: 1.2
23,GCUAGCAGAGAUACAAUGUTT against A430107D22Rik,inactive: -2.37
24,CGGAAACCUUGCACAAUAUTT against Blcap,inactive: 1.25
25,CCACCACAGCUGAAGUCAGTT against Fen1,inactive: 0.72
